These are yes or no findings as the source states them, for the method shown. Some entries that bind do so weakly or less than the wild type.
Columns and labels:
[1] = biological target: recombinant human ADAM10 (Biomatik, #RPU140010) (human) (UniProt O14672); assay: BLI, purified scFv, ADAM10 in solution
[2] = biological target: recombinant human ADAM10 (Biomatik, #RPU140010) (human) (UniProt O14672); assay: biolayer interferometry, epitope mapping: unlabeled scFv-B2 (500 nM) on ADAM10 captured by biotin-scFv-B7, after a +B9 step
[3] = biological target: recombinant human ADAM10 (Biomatik, #RPU140010) (human) (UniProt O14672); assay: biolayer interferometry, epitope mapping: unlabeled scFv-B2 (500 nM) on ADAM10 captured by biotin-scFv-B9
[4] = biological target: recombinant human ADAM10 (Biomatik, #RPU140010) (human) (UniProt O14672); assay: biolayer interferometry, unlabeled scFv coupled to AR2G biosensor, ADAM10 in solution
[5] = biological target: recombinant human ADAM10 (Biomatik, #RPU140010) (human) (UniProt O14672); assay: phage ELISA, plate-adsorbed ADAM10
[6] = biological target: recombinant human ADAM10 (Biomatik, #RPU140010) (human) (UniProt O14672); assay: BLI epitope mapping, unlabeled scFv-B2 at 500 nM on ADAM10 held by biotin-scFv-B7 (FIG. 12B)
[7] = biological target: recombinant human ADAM10 (Biomatik, #RPU140010) (human) (UniProt O14672); assay: biolayer interferometry, epitope mapping: unlabeled scFv-B7 (500 nM) on ADAM10 captured by biotin-scFv-B9, after a +B2 step
[8] = biological target: recombinant human ADAM10 (Biomatik, #RPU140010) (human) (UniProt O14672); assay: biolayer interferometry, epitope mapping: unlabeled scFv-B7 (500 nM) on ADAM10 captured by biotin-scFv-B2, after a +B9 step
[9] = biological target: recombinant human ADAM10 (Biomatik, #RPU140010) (human) (UniProt O14672); assay: BLI epitope mapping, unlabeled scFv-B7 at 500 nM on ADAM10 held by biotin-scFv-B2 (FIG. 12A)

Amino acid sequences for entries named in this document (tags omitted). Residues count along the entry.
UniProt O14672, residues 214-672: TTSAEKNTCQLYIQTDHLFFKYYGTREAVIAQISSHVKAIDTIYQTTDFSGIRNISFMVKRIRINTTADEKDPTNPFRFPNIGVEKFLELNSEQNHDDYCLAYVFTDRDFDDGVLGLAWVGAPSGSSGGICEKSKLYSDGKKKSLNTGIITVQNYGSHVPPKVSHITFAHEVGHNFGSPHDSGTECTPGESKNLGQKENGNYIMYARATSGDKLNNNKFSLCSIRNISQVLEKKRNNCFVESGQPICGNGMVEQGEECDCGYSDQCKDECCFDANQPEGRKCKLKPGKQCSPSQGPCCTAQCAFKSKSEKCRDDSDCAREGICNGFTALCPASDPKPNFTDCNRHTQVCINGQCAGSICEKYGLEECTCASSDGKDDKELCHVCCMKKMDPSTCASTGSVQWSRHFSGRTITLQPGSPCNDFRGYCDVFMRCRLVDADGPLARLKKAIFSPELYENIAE

Measured: binding

B1: scFv-B2 (scFv)
scFv: SDIQMTQSPSSLSASVGDRVTITCRASQGISNYLAWYQQKPGKAPKLLIYAASSLQSGVPSRFSGSRSGTDFTLTISSLQPEDFATYYCQQSYYLPLTFGQGTKVEIKGGGSGGGSGGGSGGGSEVQLVESGGGLVQPGGSLRLSCAASGFTFSSYGMHWVRQAPGKGLEWVAVISYDGSNKYYADSVKGRFTISRDNSKNTLYLQMNSLRAEDTAVYYCARWPAHFSHSHSSYYYYGFDVWGQGTLVTVSS
notes: Synthetic human scFv, order VL (IgKV1-16 framework) - (G3S)4 linker - VH (IgHV3-30 framework); Expressed in E. coli BL-21 and purified by protein L chromatography
not listed: [7] | [8] | [9]
binds: all other assays above

B2: scFv-B9 (scFv)
scFv: SDIQMTQSPSSLSASVGDRVTITCRASQGISNYLAWYQQKPGKAPKLLIYAASSLQSGVPSRFSGSRSGTDFTLTISSLQPEDFATYYCQQLYHPPLTFGQGTKVEIKGGGSGGGSGGGSGGGSEVQLVESGGGLVQPGGSLRLSCAASGFTFSSYGMHWVRQAPGKGLEWVAVISYDGSNKYYADSVKGRFTISRDNSKNTLYLQMNSLRAEDTAVYYCARYSPYHYSHSVSYYYYGFDVWGQGTLVTVSS
notes: as for B1
binds: [1] | [4] | [5]

B3: scFv-B7 (scFv)
scFv: SDIQMTQSPSSLSASVGDRVTITCRASQGISNYLAWYQQKPGKAPKLLIYAASSLQSGVPSRFSGSRSGTDFTLTISSLQPEDFATYYCQQVSSWPLTFGQGTKVEIKGGGSGGGSGGGSGGGSEVQLVESGGGLVQPGGSLRLSCAASGFTFSSYGMHWVRQAPGKGLEWVAVISYDGSNKYYADSVKGRFTISRDNSKNTLYLQMNSLRAEDTAVYYCARYPPHGFDYWGQGTLVTVSS
notes: as for B1
not listed: [2] | [3] | [6]
binds: all other assays above

Reference: US20180321243A1 (UNIVERSITY OF SASKATCHEWAN, published 2018)
